Assay results: publication PMC3509033
No constants are given. Whether binding was seen depends on the method and setting. In cells and extracts the contact can be indirect. Some entries that bind do so weakly or less than the wild type.

Sequences of proteins named here, by UniProt entry; tags and fusion partners are left off.
UniProt Q09472: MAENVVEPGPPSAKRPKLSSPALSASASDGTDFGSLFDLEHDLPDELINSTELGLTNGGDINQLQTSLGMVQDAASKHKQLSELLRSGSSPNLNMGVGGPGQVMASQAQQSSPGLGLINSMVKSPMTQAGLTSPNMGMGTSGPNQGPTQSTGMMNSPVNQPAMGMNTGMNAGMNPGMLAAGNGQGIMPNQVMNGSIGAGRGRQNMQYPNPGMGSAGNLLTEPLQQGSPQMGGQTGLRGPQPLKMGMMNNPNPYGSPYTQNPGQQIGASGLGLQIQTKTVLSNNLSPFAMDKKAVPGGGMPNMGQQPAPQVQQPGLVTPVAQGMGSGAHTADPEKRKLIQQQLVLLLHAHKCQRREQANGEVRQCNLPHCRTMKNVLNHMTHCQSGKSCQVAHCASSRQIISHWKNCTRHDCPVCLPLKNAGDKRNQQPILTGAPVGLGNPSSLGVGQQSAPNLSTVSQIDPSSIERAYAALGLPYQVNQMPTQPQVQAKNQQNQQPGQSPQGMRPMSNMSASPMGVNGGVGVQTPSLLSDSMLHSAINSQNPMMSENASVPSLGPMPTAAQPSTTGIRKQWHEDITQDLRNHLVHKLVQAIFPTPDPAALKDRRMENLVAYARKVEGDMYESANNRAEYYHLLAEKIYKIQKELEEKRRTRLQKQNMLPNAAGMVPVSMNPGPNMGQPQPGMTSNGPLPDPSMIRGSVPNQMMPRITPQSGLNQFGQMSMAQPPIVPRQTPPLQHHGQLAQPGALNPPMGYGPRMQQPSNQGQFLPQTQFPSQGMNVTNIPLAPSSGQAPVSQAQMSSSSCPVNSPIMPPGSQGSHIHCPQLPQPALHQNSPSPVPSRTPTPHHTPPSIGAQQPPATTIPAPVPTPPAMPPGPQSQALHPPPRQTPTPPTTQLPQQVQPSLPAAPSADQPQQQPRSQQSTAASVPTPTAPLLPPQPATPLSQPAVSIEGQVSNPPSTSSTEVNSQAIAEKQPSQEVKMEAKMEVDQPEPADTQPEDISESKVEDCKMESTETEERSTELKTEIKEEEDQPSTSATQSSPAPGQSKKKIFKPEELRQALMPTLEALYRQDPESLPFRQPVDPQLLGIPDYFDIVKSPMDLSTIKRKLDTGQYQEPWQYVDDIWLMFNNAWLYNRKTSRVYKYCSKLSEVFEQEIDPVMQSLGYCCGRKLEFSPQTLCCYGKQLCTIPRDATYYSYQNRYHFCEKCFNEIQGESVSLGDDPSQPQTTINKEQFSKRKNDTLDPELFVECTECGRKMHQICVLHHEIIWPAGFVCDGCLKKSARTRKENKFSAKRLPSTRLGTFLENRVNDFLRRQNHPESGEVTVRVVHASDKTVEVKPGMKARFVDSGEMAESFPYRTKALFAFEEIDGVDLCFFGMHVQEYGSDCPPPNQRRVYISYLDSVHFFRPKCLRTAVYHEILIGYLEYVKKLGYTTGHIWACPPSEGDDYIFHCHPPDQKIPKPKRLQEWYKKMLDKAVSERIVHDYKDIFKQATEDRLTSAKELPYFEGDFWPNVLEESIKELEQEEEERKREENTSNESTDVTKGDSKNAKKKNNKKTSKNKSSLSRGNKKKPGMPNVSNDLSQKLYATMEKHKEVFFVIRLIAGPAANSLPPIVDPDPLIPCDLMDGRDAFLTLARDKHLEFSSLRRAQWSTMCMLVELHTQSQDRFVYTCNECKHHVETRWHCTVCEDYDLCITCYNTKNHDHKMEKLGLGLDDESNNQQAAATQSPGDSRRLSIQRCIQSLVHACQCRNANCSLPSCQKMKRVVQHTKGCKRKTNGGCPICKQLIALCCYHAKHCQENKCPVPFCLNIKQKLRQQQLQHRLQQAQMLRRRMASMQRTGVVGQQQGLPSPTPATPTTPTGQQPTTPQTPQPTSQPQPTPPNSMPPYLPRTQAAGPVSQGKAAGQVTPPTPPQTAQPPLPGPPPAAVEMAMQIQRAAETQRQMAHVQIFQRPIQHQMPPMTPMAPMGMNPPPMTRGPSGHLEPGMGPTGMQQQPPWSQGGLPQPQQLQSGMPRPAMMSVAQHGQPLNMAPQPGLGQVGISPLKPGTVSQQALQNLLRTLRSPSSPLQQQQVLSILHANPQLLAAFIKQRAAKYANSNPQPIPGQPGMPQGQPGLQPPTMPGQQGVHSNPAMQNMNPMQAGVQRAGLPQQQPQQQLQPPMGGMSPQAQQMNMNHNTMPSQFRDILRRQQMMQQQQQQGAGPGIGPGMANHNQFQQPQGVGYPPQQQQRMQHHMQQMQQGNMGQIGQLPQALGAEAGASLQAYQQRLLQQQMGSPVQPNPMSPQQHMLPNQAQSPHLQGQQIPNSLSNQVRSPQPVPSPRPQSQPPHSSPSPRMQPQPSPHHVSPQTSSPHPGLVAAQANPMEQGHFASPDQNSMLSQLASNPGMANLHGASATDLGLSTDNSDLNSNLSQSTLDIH

Target: p300 (human (endogenous in HRMCs)) (UniProt Q09472)
Experiment: co-IP; HRMCs treated with 10 ug/ml LPS for the indicated times; lysates with 1 mg of protein incubated with 2 ug anti-c-Src or anti-p300 antibody at 4°C for 24 h, then protein A-agarose beads; washed thrice with lysis buffer without Triton X-100; Western blot with anti-TLR4, anti-p47phox, anti-c-Src, anti-p300 or anti-ATF2 antibody

binding: binds
B1: activating transcription factor 2 (protein, UniProt P15336 1-505)
chain: MKFKLHVNSARQYKDLWNMSDDKPFLCTAPGCGQRFTNEDHLAVHKHKHEMTLKFGPARNDSVIVADQTPTPTRFLKNCEEVGLFNELASPFENEFKKASEDDIKKMPLDLSPLATPIIRSKIEEPSVVETTHQDSPLPHPESTTSDEKEVPLAQTAQPTSAIVRPASLQVPNVLLTSSDSSVIIQQAVPSPTSSTVITQAPSSNRPIVPVPGPFPLLLHLPNGQTMPVAIPASITSSNVHVPAAVPLVRPVTMVPSVPGIPGPSSPQPVQSEAKMRLKAALTQQHPPVTNGDTVKGHGSGLVRTQSEESRPQSLQQPATSTTETPASPAHTTPQTQSTSGRRRRAANEDPDEKRRKFLERNRAAASRCRQKRKVWVQSLEKKAEDLSSLNGQLQSEVTLLRNEVAQLKQLLLAHKDCPVTAMQKKSGYHTADKDDSSEDISVPSSPHTEAIQHSSVSTSNGVSSTSKAEAVATSVLTQMADQSTEPALSQIVMAPSSQSQPSGS
